Experiment: Double antibody radioimmunoassay (RIA) for HPLB-II in biological fluids
Design: species or system human
Method: A double antibody radioimmunoassay (RIA) was developed for the measurement of HPLB-II. HPLB-II was labeled with ^125I by the chloramine-T method. Free ^125I was separated from labeled protein by gel filtration on a Sephadex G-25 column. Before RIA incubation, the labeled antigen was diluted in assay buffer (50 mM sodium phosphate, pH 7.4, containing 80 mM NaCl, 10 Mm Na-EDTA, 0.2% Bovine serum albumin, 0.02% NaN3 0.2% CTAB and 0.5% Tween 20) to 38000±2000 cpm/100 μl (tracer). A 50 μl solution of either sample or standard (2-128 μl/l) was sequentially mixed with 50 μl of labeled HPLB-II (tracer), 50 μl of specific antibodies raised in rabbit (diluted 1:60000 in assay buffer) and incubated for 3 h at room temperature. Thereafter, 0.5 ml of decanting suspension containing Sephadex anti-rabbit IgG raised in sheep were added and the incubation continued for 1 h at 4° C. HPLB-II-antibody complexes bound on Sephadex anti-rabbit IgG were separated and pelleted by centrifugation at 18° C. for 15 min at 4000 rpm. After decantation, the radioactivity was measured in a gamma counter.

B1: HPLB-II: Novel phospholipase B from human neutrophil granules; about 130 kDa oligomer of 25 and 45 kDa fragments of hypothetical protein FLJ22662 (protein)
chain 1: MPAEKTVQVKNVMDKNGDAYGFYNNSVKTTGWGILEIRAGYGSQTLSNEIIMFVAGFLEGYLTAPHMNDHYTNLYPQLITKPSIMDKVQDFMEKQDKWTRKNIKEYKTDSFWRHTGYVMAQIDGLYVGAK
chain 2: VLPGFENILFAHSSWYTYAAMLRIYKHWDFNIIDKDTSSSRLSFSSYPGFLESLDDFYILSSGLILLQTTNSVFNKTLLKQVIPETLLSWQRVRVANMMADSGKRWADIFSKYNSGTYNNQYMVLDLKKVKLNHSLDKGTLYIVEQIPTYVEYSEQTDVLRKGYWPSYNVPFHEKIYNWSGYPLLVQKLGLDYSYDLAPRAKIFRRDQGKVTDTASMKYIMRYNNYKKDPYSRGDPCNTICCREDLNSPNPSPGGCYDTKVADIYLASQYTSYAISGPTVQGGLPVFRWDRFNKTLHQGMAEVYNFDFITMKPILK
Question: With B1 as the molecule, how does the “level in intestinal fluid of patients with inflammatory bowel disease” value read?
Answer: 22 to 52 µg/L

Question: What about the “level in lung lavage fluids of patients with chronic obstructive pulmonary disease” value of the same molecule?
Answer: 1 to 21 µg/L

Question: What about the “level in serum of patients with acute bacterial infections” value of the same molecule?
Answer: 3 to 9 µg/L

Question: What about the “level in normal serum” value (limit of detection 1 μg/L) of the same molecule?
Answer: undetectable

From patent US8288112B2, “Protein, an antibody and measurement of the protein” (P&M Venge AB, priority 2006, dated 2012)
